In all, about 33,000 sequences were measured (“E-score (-0.5 to 0.5)”: median about -8e-05, highest 2% from about 0.23 on). The list shows a part of the results.
What follows are sequences tested against T1, Nrg2 (UniProt P38082) (assay: PBM E-score (8-mer binding enrichment) (E-score (-0.5 to 0.5)); higher = stronger / more preferred TF binding). Conditions: protein concentration: 100 nM; construct: GST-full length.
T1 sequence: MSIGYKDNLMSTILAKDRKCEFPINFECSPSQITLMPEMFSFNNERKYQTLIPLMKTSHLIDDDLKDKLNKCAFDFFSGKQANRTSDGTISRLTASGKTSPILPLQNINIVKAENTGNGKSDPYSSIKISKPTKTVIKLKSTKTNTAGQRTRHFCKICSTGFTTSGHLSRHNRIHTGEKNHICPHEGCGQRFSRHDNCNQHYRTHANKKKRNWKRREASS
Procedure, shortened: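 For each ungapped eight-base word taken together with its reverse complement, the Universal PBM Analysis Suite assigned an E-score. Binding data came from GST-tagged yeast transcription factors, applied at about 100-200 nM, on universal all-10-mer Agilent arrays made double-stranded by primer extension. Fluorescent anti-GST marked bound protein, and scans were normalised with masliner.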

Sequence	PBM E-score
AATGCCGT	0.142
CGCAGTAG	-0.0995
AATCACTA	0.0985
ATTGGGGA	-0.0847
CATGAGCC	-0.166
TGCAGCCA	0.108
CTAGTGAC	-0.11
AGCCTTCA	-0.00453
AACCACTA	-0.0877
GCTTAACC	-0.136
GAGTAAGA	-0.0102
GGACGGGA	-0.185
CGCTTTTA	-0.0218
AGTGACGC	0.012
AATATGAT	0.179
GTTCCTGA	-0.0302
ATCACGGC	0.157
AGTGCAGC	0.00819
ACGATCGA	0.0838
CTAGAGGC	0.00362
CCGTCTCG	0.0341
GTGCCGGA	0.0495
GGCATAAC	0.0771
AACATGGG	0.21
CTGTCGGA	-0.127

Sequence	PBM E-score
AAATGCAT	0.116
ATGACAGG	-0.148
ACACGTGG	-0.0563
AGATGCTA	0.0384
ACAAGTCA	-0.132
TCCAGCCA	-0.25
ACCCTTGG	0.198
AGCAAGGC	-0.0107
CCAATCGC	0.0764
TACAGTGA	0.0642
TGCAGGCA	-0.166
TATTCCGA	0.0741
AACTTGCT	-0.0414
CGCATAAC	0.119
ATTACGTC	-0.0343
TACTGCAA	0.0102
ACCTGGAG	-0.16
CAGGCCTC	-0.306
GCTCGACA	-0.205
CGAAACAC	0.137
GACTTCCC	-0.137
AACAAGGC	-0.0824
CACGATTC	0.142
AGCGAAAG	-0.00512
AGACAATA	0.204

Sequence	PBM E-score
CATTATCA	0.115
ACCGCTAA	0.0602
GCGAGAGC	-0.1
AATTTAAT	0.222
AATTTGCT	0.0122
CAAATGCA	-0.0764
GCAAATGA	0.0451
CGAAAGAG	-0.108
TAGTATGA	0.26
CCGAGCCA	-0.142
AAGTGATC	0.0173
CTCGGTCA	-0.0604
TCAGGAAA	-0.0263
ATATTGGA	0.0164
GATTACGC	0.0724
TAGTGGGA	0.0079
ACCCGGGG	-0.0171
AGAGCGAG	-0.0653
CCTACGCC	-0.277
GTAGACGA	-0.133
ACACACCA	0.125
ATCACGCC	-0.026
ACATAGGT	0.112
GCATCATA	0.0672
ATAGAAGA	-0.158

As a short view, part of the list above.
Sequence	PBM E-score
CTAGAGGC	0.00362
CCGTCTCG	0.0341
GTGCCGGA	0.0495
GGCATAAC	0.0771
AACATGGG	0.21
CTGTCGGA	-0.127
AAATGCAT	0.116
ATGACAGG	-0.148
ACACGTGG	-0.0563
AGATGCTA	0.0384
ACAAGTCA	-0.132
TCCAGCCA	-0.25
ACCCTTGG	0.198
AGCAAGGC	-0.0107
CCAATCGC	0.0764
TACAGTGA	0.0642
TGCAGGCA	-0.166
TATTCCGA	0.0741
AACTTGCT	-0.0414
CGCATAAC	0.119
ATTACGTC	-0.0343
TACTGCAA	0.0102
ACCTGGAG	-0.16
CAGGCCTC	-0.306
GCTCGACA	-0.205
CGAAACAC	0.137
GACTTCCC	-0.137
AACAAGGC	-0.0824
CACGATTC	0.142
AGCGAAAG	-0.00512
AGACAATA	0.204
CATTATCA	0.115
ACCGCTAA	0.0602
GCGAGAGC	-0.1
AATTTAAT	0.222
AATTTGCT	0.0122
CAAATGCA	-0.0764
GCAAATGA	0.0451
CGAAAGAG	-0.108
TAGTATGA	0.26
CCGAGCCA	-0.142
AAGTGATC	0.0173
CTCGGTCA	-0.0604
TCAGGAAA	-0.0263
ATATTGGA	0.0164
GATTACGC	0.0724
TAGTGGGA	0.0079
ACCCGGGG	-0.0171
AGAGCGAG	-0.0653
CCTACGCC	-0.277

The results go on:

Sequence	PBM E-score
GACCAACA	0.224
GACGATAC	0.0105
TCATAGAA	0.073
CCACATAC	0.0682
ACACTTGA	0.0129
AGAGCCCC	-0.139
GAAAGTAC	0.107
ATGGCATC	0.11
GGAGCGAA	-0.0981
ATCTATTC	0.0653
GTATTTGA	-0.0333
TATTAAGA	-0.0662
AGATTTCA	0.0272
ACGGGATG	-0.0465
CGTCGCAC	-0.0266
CCTGTTCC	0.0159
GGGCAGTA	0.166
GGGTCACA	-0.0942
CGGTACGC	-0.109
GAACCACA	0.2
GAGAACAC	-0.00609
CGCCATAA	-0.0189
TCGAAGCA	-0.118
ATAAGTCC	-0.0254
ACCCAGAT	-0.0909

Sequence	PBM E-score
CGGACGTC	0.0781
GACGTGAC	-0.129
AGAATGTC	0.00292
TACGGACA	-0.0578
ATCTTGTA	-0.0604
ACACAATA	0.198
TACACGCA	-0.194
TAAGCCAA	0.0361
GACAGTGA	0.0197
AACTGCTA	0.0301
GAAAGCGA	0.14
AACTAAGA	0.126
GATCTAGA	-0.0372
ACATCCAT	0.00901
AGCCTCTG	-0.275
CAGGTGTC	0.0574
CCCAAAGA	0.0152
AAGCCGTC	-0.0705
GAACCTGC	0.0812
AGATTTAC	0.0792
ACTGTCAT	0.132
AAGAACAA	0.194
GGAGAGAA	-0.0878
AAACAGGC	-0.144
ATGGTACC	-0.0466

Sequence	PBM E-score
TGCACACA	-0.0368
CTTCGATC	-0.00647
CATGGCCG	0.258
CACAACGG	0.102
GATCCGTA	-0.155
CCTTGAGC	0.0449
ATGGAAGG	-0.214
CAAGAATA	0.123
ATCTACGC	0.226
TAAAAGAA	0.0181
TGGTAGAA	-0.19
CAGGCGGG	-0.0776
CCCTACCG	-0.116
CATACTGC	0.0795
CGGTAACC	-0.112
AGTGGCAC	-0.0847
ACCGCTCC	-0.0686
ACAGTCAT	-0.0898
AACAGTCA	-0.014
ATGAAGAG	0.00699
GTTCAAAC	0.194
CTTCGAAA	-0.169
AAGTGAGG	-0.151
ATGACTCA	-0.00717
CCATGCCC	-0.111

Sequence	PBM E-score
CTCACGCA	0.353
CCTGGATC	0.0126
CTGCGCAG	0.0344
ATCTTCTC	0.0597
CGAACCTA	-0.141
ACCCGCAA	-0.159
ACTTGTTA	0.124
ATTATAAC	-0.0156
CTGGGCCA	-0.209
AGGAGTCG	-0.125
GCGACTGA	-0.118
GTGTTAGA	0.0335
AAATCTAG	-0.0302
ATGCCAAC	0.103
CAACGATA	0.0152
CAGCACAG	0.158
AGATCCGC	0.0351
TCAGGCGA	-0.0146
ATTAGTGC	0.23
GCTGGCAA	0.132
GAACAATA	0.277
AATAGGGA	0.0503
